According to publication PMC10855754:
Results are given in words; binding and its absence hold for the method and conditions named.

Molecular target: Nqo15, subunit of respiratory complex I of Thermus thermophilus (Thermus thermophilus) (UniProt Q5SKZ7)
Test: SEC-MALS; Superose-12 column with miniDawn MALLS; protein 260 uM; 20 mM Tris-HCl, 50 mM or 200 mM NaCl, pH 7.0; 25 °C; flow 0.4 mL/min; single peak of 16.2 ± 0.3 kDa (expected 14.6 kDa), same mass at both salt concentrations; both purified

B1: Nqo15, subunit of respiratory complex I of Thermus thermophilus (protein, UniProt Q5SKZ7 1-129)
chain: MSASSERELYEAWVELLSWMREYAQAKGVRFEKEADFPDFIYRMERPYDLPTTIMTASLSDGLGEPFLLADVSPRHAKLKRIGLRLPRAHIHLHAHYEPGKGLVTGKIPLTKERFFALADRAREALAFA
binding: no binding (tested: 260 µM)
